Results are given in words; binding and its absence hold for the method and conditions named. Some binding calls cover weakened binding; strength is not graded here.
Target: β-tubulin (TUBB4B) (bovine (endogenous in bovine sperm)) (UniProt Q3MHM5)
Test: cryo-EM structure

Sequences of proteins named here, by UniProt entry; tags and fusion partners are left off.
UniProt Q3MHM5: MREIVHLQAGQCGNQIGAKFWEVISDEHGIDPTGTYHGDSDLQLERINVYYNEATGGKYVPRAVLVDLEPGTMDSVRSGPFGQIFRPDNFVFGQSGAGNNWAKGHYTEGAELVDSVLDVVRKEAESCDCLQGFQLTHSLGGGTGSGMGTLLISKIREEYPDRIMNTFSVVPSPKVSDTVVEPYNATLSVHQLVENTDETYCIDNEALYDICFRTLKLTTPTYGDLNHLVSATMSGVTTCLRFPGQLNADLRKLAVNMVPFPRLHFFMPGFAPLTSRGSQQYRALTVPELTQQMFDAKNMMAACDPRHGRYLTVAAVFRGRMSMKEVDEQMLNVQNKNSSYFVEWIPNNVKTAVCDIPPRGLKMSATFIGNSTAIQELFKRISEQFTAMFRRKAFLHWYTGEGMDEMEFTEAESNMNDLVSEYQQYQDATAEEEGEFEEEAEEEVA
UniProt A0A3Q1LJD6: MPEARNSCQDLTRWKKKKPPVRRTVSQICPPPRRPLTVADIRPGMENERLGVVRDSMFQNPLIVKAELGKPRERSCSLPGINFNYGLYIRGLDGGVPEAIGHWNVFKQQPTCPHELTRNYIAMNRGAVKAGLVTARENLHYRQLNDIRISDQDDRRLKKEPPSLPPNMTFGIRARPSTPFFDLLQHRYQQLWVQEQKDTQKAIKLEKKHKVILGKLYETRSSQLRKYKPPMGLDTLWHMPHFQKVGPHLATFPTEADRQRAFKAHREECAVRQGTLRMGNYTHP

Substance: CFAP77 (from UniProt A0A3Q1LJD6 1-284)
- binding: binds

From doi:10.1101/2022.09.29.510157
